# At least one compound was matched to its structure with a doubt left.
# The chains behind the UniProt entries cited, without tags or fusion partners.
# UniProt P35372, whole entry, species assumed: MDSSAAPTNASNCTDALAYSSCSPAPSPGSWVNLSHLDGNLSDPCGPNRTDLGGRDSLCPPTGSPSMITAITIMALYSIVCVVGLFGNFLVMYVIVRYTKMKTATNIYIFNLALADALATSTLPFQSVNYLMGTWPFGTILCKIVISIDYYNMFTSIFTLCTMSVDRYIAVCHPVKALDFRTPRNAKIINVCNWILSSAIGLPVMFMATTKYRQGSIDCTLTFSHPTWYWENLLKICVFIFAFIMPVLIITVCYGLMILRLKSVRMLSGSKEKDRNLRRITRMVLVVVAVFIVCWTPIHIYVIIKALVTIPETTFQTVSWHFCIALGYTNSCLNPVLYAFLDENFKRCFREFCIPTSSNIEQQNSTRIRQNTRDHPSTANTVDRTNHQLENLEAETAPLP
# Molecular target: μ opioid receptor (Homo sapiens, UniProt P35372)
# Assay: μ opioid receptor agonism, G protein signaling pathway
# Assay type: cell-based
# Settings: functionally selective towards G-protein signaling relative to β-arrestin
row,Compound,Biased Agonism Yes/No
1,CCCOC(=O)c1cccc(CNCc2cn(-c3ccccc3)nc2-c2ccccc2)c1 [Compound 8],No
2,CCCNC(=O)c1cccc(CNCc2cn(-c3ccccc3)nc2-c2ccncc2)c1 [Compound 1],No
3,c1ccc(-c2nn(-c3ccccc3)cc2CNCc2ccc3occc3c2)cc1 [Compound 4],No
4,CCOC(=O)c1cccc(CNCc2cn(-c3ccccc3)nc2-c2ccncc2)c1 [Compound 11],No
5,c1ccc(-n2cc(CNCc3ccc4c(c3)CCO4)c(-c3ccncc3)n2)cc1 [Compound 13],Yes
6,CCCNC(=O)c1cccc(CNCc2cn(-c3ccccc3)nc2-c2ccccc2)c1 [Compound 2],No
7,CCCOC(=O)c1cccc(CNCc2cn(-c3ccccc3)nc2-c2ccncc2)c1 [Compound 9],No
8,CCOC(=O)c1cccc(CNCc2cn(-c3ccccc3)nc2-c2ccccc2)c1 [Compound 10],No
9,c1ccc(-n2cc(CNCc3ccc4occc4c3)c(-c3ccncc3)n2)cc1 [Compound 3],Yes
10,c1ccc(-n2cc(CNCc3ccc4c(c3)OCO4)c(-c3ccncc3)n2)cc1 [Compound 12],Yes
